Results are given in words; binding and its absence hold for the method and conditions named. Some results given as binding are weak or reduced against the parent protein; the word gives no strength. Tags and fused reporters may be left off the sequences shown.
Molecular target: T1, drebrin of wild-type mouse (cerebral cortex extract) (mouse) (UniProt Q9QXS6)
T1 sequence (looked up): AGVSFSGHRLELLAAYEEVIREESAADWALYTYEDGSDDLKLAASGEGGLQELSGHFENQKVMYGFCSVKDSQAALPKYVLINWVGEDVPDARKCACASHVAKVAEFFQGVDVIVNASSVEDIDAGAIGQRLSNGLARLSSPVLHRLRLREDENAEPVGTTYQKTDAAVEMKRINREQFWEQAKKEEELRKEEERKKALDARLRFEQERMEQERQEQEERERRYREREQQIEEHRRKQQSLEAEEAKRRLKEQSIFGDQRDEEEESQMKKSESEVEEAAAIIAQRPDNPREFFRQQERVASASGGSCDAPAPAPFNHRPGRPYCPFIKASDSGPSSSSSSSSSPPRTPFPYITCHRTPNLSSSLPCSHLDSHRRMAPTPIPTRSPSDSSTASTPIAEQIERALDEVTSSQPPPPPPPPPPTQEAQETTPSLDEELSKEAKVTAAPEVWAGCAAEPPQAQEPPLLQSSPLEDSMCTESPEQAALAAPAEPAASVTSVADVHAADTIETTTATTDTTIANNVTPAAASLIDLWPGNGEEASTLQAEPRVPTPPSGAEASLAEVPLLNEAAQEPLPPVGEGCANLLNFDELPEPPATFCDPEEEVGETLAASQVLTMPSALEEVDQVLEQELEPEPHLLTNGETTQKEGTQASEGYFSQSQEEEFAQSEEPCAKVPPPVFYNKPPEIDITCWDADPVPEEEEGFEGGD
Test: Western blot, cerebral cortex extracts of wild-type and drebrin knockout mice; band at 140 kDa in WT only

B1: Drebrin-binding peptide-human IgG Fc fusion antibody in which #1 peptide is fused with the Fc region of human IgG antibody (#1Fc antibody) (Fc fusion, not shown: a dimerising Fc or GST)
chain: QVQLVESGGGLVRAGGSLRLSCAATGRTFSAYTMGWFRQAPGKEREFVAAVTRSSTSTYYAGSVKGRFTISRDNAKNMVYLQMNNLEPEDTAVYYCHARRPSTTGHWGQGTQVTVSSEPKTPKPQSA
  binding: binds

Source: patent WO2019216345A1
